These are yes or no findings as the source states them, for the method shown.
Target: Tissue-type plasminogen activator (UniProt P00750)
Experiment: BLI; BLItz system (ForteBio); proteins biotinylated and immobilised on streptavidin-coated biosensor tips, probed with the analytes, dissociation in sample dilution buffer; signals compared with those of an unloaded sensor; which partner was immobilised is not told; both purified

Amino acid sequences for entries named in this document (tags omitted). Residues count along the entry.
UniProt P00750, residues 36-562: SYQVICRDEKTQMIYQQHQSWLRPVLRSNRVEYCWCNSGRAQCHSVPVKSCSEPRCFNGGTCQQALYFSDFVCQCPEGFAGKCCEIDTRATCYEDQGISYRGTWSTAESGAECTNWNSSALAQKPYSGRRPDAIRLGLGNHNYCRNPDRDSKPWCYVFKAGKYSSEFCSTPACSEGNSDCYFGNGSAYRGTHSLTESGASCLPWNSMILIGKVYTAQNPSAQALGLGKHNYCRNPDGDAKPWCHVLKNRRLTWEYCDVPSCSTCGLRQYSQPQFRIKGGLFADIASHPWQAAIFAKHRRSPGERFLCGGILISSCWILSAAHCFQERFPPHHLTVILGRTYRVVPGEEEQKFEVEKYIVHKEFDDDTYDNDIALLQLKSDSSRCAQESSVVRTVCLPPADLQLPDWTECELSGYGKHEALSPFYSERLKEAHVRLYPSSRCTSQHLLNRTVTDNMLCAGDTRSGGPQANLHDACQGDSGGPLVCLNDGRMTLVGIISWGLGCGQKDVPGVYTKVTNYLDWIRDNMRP
UniProt P09429: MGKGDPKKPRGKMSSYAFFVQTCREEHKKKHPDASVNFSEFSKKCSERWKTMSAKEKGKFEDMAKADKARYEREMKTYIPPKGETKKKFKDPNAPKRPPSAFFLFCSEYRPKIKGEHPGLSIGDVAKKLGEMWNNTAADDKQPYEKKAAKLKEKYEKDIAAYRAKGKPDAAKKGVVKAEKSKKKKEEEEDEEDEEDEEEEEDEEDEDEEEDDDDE

binding: no binding
Substance: High-mobility group box 1 (from UniProt P09429 1-215)
